Measurements reported in patent publication US20230330033A1.
No constants are given. Whether binding was seen depends on the method and setting. Some results given as binding are weak or reduced against the parent protein; the word gives no strength.

Legend:
[1] = molecular target: human IgG1 Fc (human) [IgG part: P01857]; assay: SEC after mixing with human IgG1 Fc
[2] = molecular target: mRuby2 Fc-fusion (human) [IgG part: P01857]; assay: cage formation verified by SEC at minimum
[3] = molecular target: sfGFP Fc-fusion (human) [IgG part: P01857]; assay: cage formation verified by SEC at minimum
[4] = molecular target: human IgG1 Fc (human) [IgG part: P01857]; assay: negative-stain EM 3D reconstruction of the Fc AbC
[5] = molecular target: human IgG1 Fc (human) [IgG part: P01857]; assay: size exclusion chromatography of the design mixed with human IgG1 Fc, overlaid on the single components (UV 230, normalized)

Measured: binding

B1: d2.4 (designed binder)
chain: MSDEEERNELIKRIREAAQRAREAAERTGDPRVRELARELARIAQIAFYLVLHDPSSSEVNEALKAVVKAIELAVRALEAAEKTGDPRVRELAREVVKAAVDVAEAAQAGLNDKLREVAEKALRLAKEALKEGDSTAAELAAEIARLAAKLAGDEDVLKKVKLVLEAIKLVKIVVENAKRKGDDSKEAAEAAVAAFLIVLAAAKLAGIASEEVLELAARLIKEVVENAQREGYDIAVAAIAAAVAFAVVAVAAAAADITSSEVLELAIRLIKEVVENAQREGYVILLAALAAAAAFVVVAAAAKRAGITSSETLKRAIEEIRKRVEEAQREGNDISEAARQAAEEFRKKAEELKGSLEHHHHHH
binds: all assays above

B2: i52.3 (designed binder)
chain: MSDEEERNELIKRIREAAQRAREAAERTGDPRVRELARELARLAQRAFYLVLHDPSSSDVNEALKLIVEAIEAAVRALEAAERAGDPELREDAREAVRLAVEAAEEVQRNPSSSTANLLLKAIVALAEALAAAANGDKEKFKKAAESALEIAKRVVEVASKEGDPEAVLEAAKVALRVAELAAKNGDKEVFKKAAESALEVAKRLVEVASKEGDPELVLEAAKVALRVAELAAKNGDKEVFQKAAASAVEVALRLTEVASKEGDSELETEAAKVITRVRELASKQGDAAVAILAETAEVKLEIEESKKRPQSESAKNLILIMQLLINQIRLLVLQIRMLDEQRQEGSLEHHHHHH
binds: [2] | [3]
